# These are yes or no findings as the source states them, for the method shown. Binding can be weak; no strength is given. Where a sequence is shown, tags or fusion partners need not be part of it.
# Target: GST-Sim3 (S. pombe) (UniProt Q9USQ4)
# Assay: pull-down; GST-Sim3 with recombinant histone octamers, H3-H4 tetramers or soluble histones; Figure S7; methods in the Supplemental Data; both purified
row,binding,Substance
1,binds,H3-H4 tetramers (complex)
2,binds,recombinant H3-H4-H2A-H2B octamers (complex)

# Reference: paper PMC2193228
